The target of this test is T1, GST-tagged 14-3-3γ (UniProt P61981 1-247).
T1 construct: 14-3-3γ, in the bacterial expression vector pGEX-4T3; Held on glutathione sepharose 4B as bait; also called GST-14-3-3γ; GST-14-3-3
T1 sequence (looked up): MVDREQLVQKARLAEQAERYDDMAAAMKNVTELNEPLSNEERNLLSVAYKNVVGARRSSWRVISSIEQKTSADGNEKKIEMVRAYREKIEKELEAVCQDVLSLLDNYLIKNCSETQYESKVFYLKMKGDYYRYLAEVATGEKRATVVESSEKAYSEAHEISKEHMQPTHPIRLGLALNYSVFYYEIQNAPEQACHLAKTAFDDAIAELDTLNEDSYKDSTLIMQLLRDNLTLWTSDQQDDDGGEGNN
In words: pull-down; glutathione sepharose 4B saturated with purified GST-14-3-3γ, incubated with lysates of transfected HEK293T cells; cells without or with 10 µM forskolin (time course or 15 min), RGS18 alone or co-expressed with myc-spinophilin and/or VSV-PP1 catalytic subunit; precipitates blotted with anti-RGS18 or anti-FLAG; only the target purified.

No constants are given. Whether binding was seen depends on the method and setting. Binding seen in cells or lysates may run through a third protein. Some binding calls cover weakened binding; strength is not graded here. Tags and fused reporters may be left off the sequences shown.

B1: FLAG-tagged S216A mutant RGS18 (protein, UniProt Q9NS28 1-235)
chain: METTLLFFSQINMCESKEKTFFKLIHGSGKEETSKEAKIRAKEKRNRLSLLVQKPEFHEDTRSSRSGHLAKETRVSPEEAVKWGESFDKLLSHRDGLEAFTRFLKTEFSEENIEFWIACEDFKKSKGPQQIHLKAKAIYEKFIQTDAPKEVNLDFHTKEVITNSITQPTLHSFDAAQSRVYQLMEQDSYTRFLKSDIYLDLMEGRPQRPTNLRRRARSFTCNEFQDVQSDVAIWL
modifications: phosphoserine at S49 (s3 band present in S216A)
B1: the binding entry is “binds”.

(Values after PMC3820651, “Cyclic Nucleotide Dependent Dephosphorylation of Regulator of G-Protein Signaling 18 in Human Platelets” (PLoS ONE, 2013).)
